Test results published in patent US20120202233A1.
No constants are given. Whether binding was seen depends on the method and setting. In cells and extracts the contact can be indirect. Some binding calls cover weakened binding; strength is not graded here. For some of these results: Where a sequence is shown, tags or fusion partners need not be part of it. Values belong to the substance of their own block, whether it stands above or below them.

What was measured:
[1] = molecular target: T1, FLAG-KSR (wild-type KSR1) (mouse) (UniProt Q61097); experiment: co-immunoprecipitation with wild-type FLAG-KSR; basal dimers of wild-type BRAF as the reference (FIG. 4B)
T1 sequence (looked up): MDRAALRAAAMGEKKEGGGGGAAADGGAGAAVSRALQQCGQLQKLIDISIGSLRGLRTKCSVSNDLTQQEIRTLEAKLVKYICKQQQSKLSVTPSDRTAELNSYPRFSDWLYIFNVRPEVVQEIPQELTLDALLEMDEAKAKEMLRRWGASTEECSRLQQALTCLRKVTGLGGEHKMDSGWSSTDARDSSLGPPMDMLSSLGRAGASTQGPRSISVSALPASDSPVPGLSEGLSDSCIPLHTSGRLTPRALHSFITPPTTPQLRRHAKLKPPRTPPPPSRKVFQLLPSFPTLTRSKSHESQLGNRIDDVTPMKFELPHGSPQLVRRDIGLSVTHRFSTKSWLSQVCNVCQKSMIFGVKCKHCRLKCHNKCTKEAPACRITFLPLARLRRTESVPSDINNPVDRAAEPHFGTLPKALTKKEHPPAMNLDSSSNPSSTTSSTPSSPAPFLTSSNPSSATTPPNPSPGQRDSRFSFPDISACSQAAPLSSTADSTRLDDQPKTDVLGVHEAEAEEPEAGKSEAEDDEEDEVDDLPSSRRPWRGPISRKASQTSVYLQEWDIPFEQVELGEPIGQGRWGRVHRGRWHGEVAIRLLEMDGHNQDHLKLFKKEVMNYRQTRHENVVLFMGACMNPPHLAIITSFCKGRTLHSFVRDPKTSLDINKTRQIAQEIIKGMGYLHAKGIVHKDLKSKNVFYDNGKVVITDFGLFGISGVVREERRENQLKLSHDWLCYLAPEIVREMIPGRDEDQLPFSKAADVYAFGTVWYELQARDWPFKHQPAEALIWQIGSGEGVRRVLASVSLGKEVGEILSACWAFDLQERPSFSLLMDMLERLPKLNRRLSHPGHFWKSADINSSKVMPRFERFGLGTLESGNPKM

[2] = molecular target: BRAF (wild type) (Homo sapiens (Human)) (UniProt P15056); experiment: co-immunoprecipitation: KSR IP, BRAF blot; cells treated with drug for 1 hour (FIG. 1B)
[3] = molecular target: BRAF (wild type) (Homo sapiens (Human)) (UniProt P15056); experiment: co-immunoprecipitation: FLAG-KSR IP, BRAF blot; wild type as the reference (FIG. 2G)
[4] = molecular target: myc-CRAF (wild type) (Homo sapiens (Human)) (UniProt P04049); experiment: co-immunoprecipitation: FLAG-KSR IP, myc blot; cells treated with drug for 1 hour (FIG. 1C)
[5] = molecular target: BRAF (wild type) (Homo sapiens (Human)) (UniProt P15056); experiment: co-immunoprecipitation after GDC0879 or PLX4720 treatment (FIG. 1B)
[6] = molecular target: myc-CRAF (wild type) (Homo sapiens (Human)) (UniProt P04049); experiment: co-immunoprecipitation after GDC0879 or PLX4720 treatment (FIG. 1C)
[7] = molecular target: T1, FLAG-KSR (wild-type KSR1) (mouse); experiment: co-immunoprecipitation with wild-type FLAG-KSR (FIG. 4B)

binding [1]: binds
Substance: BRAF (wild type) (from UniProt P15056 1-766) (enzyme)

binding [2]: binds
binding [3]: binds
binding [4]: binds
binding [5]: binds
binding [6]: binds
Substance: FLAG-KSR (wild-type KSR1) (from UniProt Q61097 1-873) (enzyme)

binding [7]: binds
Substance: BRAF A481F (from UniProt P15056 1-766) (enzyme)
